Data on 2 substances can be found in paper PMC8096781.

The assay concerns the target T1, GST-FOXM1D (UniProt Q08050).
T1 sequence: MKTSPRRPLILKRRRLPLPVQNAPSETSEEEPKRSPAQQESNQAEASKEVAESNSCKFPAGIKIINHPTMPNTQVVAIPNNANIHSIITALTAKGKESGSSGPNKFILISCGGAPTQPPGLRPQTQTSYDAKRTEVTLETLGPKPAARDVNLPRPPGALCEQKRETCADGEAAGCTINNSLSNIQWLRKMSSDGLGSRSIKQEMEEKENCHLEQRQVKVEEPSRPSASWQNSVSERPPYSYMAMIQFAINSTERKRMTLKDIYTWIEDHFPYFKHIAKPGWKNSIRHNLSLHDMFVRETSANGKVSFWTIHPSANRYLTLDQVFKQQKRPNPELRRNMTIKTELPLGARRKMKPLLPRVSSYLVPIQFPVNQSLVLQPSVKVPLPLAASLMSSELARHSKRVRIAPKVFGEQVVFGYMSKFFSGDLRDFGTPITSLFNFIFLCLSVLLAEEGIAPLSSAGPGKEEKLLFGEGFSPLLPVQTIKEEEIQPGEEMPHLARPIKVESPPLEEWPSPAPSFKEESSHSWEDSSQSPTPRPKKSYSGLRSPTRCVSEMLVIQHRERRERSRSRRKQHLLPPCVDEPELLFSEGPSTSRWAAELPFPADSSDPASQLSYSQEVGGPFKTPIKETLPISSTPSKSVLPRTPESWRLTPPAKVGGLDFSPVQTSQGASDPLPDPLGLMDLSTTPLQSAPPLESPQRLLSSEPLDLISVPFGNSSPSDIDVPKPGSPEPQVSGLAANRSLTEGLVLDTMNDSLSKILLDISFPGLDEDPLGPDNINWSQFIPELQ
Nature of the assay: pull-down; GST-FOXM1D or control GST bound to MagneGST glutathione particles, incubated with lysates of transfected HEK293T cells for 1 h at 4 °C; western blot with anti-HA and anti-PKM2; only the target purified. (A western blot detects proteins with antibodies after separation by electrophoresis.)

No constants are given. Whether binding was seen depends on the method and setting. Binding seen in cells or lysates may run through a third protein. Binding calls can cover weak binding; strength is not graded here. Sequences can lack the tags named with a protein.

Consider “HA-tagged A1 domain of PKM2 (domain or fragment)”, for which the binding result is reported as “no binding”.

As to “HA-tagged B domain of PKM2 (domain or fragment)”, the binding result is listed as “binds”.
